Data on one compound can be found in patent US7067500B2, “Betaines as adjuvants to susceptibility testing and antimicrobial therapy” (priority 1997, dated 2006).

Each structure is given as a SMILES string. Structures can show the parent of a compound that is named as a salt.

For the data set, the system named is Mycobacteria (acid fast bacilli: AFB). Description: CB-18 Pilot Study: smear analysis of processed respiratory specimens.
The mark [1] stands for this setting: each processing method evaluated independently, smear± included.

For the compound `CCCCCCCCCCCCCCCCCC[N+](C)(C)CCCC(=O)[O-]` [CB-18, N-(3-carboxypropyl)-N,N-dimethyl-1-octadecanaminium, inner salt], the “increase in smear sensitivity” value (CB-18 relative to NaOH) is “approximately 58%”. The “specificity of smear analysis” value (analysis of Table 4, smear± without confirming culture not counted) is given as 96.8%. For the same compound, under setting [1], the “Smear: Sensitivity” value worked out at 62.9% and the “Smear: Specificity” value is recorded as 91.2%.
